Results reported in the supplement of paper PMC10849652.
The other results are listed elsewhere or left out.

By UniProt entry, the sequences of proteins in these tests, tags left out. Where a name states a change or a piece, a line headed by the entry shows the natural chain unless it says otherwise.
UniProt Q674X7: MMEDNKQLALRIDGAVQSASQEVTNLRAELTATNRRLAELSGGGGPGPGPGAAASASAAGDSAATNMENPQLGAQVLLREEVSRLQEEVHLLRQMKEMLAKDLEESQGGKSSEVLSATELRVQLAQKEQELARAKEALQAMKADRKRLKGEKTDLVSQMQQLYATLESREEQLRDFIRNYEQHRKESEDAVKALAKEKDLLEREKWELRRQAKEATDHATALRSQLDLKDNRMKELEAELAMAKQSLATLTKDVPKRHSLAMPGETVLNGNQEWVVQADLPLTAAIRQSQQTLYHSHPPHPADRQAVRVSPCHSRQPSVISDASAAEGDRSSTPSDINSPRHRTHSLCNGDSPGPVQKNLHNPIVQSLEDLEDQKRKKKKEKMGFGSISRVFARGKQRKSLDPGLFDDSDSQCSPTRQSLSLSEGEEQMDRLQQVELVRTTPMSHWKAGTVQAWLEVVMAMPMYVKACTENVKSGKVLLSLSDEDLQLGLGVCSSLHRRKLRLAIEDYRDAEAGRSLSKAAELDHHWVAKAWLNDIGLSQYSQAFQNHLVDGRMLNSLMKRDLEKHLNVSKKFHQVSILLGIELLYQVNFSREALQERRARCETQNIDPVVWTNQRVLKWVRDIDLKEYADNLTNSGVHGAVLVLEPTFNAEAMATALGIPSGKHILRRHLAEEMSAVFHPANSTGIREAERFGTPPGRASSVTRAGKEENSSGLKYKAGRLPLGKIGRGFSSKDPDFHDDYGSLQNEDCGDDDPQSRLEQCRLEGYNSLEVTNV
UniProt Q9Y448: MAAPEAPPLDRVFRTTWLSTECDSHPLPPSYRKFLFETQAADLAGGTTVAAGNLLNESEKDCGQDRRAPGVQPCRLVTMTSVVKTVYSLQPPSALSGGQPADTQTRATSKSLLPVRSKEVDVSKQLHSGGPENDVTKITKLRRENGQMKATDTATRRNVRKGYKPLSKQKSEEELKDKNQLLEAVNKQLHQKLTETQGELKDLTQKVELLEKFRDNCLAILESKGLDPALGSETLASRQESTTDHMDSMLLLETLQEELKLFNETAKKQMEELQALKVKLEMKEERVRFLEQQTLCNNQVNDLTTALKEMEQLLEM
UniProt Q9NVR0: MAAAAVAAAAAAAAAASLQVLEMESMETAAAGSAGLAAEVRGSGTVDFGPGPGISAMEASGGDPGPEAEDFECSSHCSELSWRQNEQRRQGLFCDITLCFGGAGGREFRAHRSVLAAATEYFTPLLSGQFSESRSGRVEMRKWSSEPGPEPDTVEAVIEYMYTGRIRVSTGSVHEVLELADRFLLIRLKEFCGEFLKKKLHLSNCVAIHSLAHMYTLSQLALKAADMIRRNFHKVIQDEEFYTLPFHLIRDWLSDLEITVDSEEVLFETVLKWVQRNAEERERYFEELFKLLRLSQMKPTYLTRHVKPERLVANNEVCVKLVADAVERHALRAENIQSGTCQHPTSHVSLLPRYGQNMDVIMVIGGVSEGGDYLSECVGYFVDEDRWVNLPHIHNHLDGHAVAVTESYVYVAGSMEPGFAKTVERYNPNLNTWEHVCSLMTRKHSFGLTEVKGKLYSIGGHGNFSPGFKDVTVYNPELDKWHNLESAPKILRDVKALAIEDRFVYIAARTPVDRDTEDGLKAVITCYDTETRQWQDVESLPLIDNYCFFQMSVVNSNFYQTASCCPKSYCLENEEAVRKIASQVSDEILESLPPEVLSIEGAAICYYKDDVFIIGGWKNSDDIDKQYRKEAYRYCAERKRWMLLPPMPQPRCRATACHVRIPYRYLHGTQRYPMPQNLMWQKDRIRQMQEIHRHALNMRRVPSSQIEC
UniProt Q06136: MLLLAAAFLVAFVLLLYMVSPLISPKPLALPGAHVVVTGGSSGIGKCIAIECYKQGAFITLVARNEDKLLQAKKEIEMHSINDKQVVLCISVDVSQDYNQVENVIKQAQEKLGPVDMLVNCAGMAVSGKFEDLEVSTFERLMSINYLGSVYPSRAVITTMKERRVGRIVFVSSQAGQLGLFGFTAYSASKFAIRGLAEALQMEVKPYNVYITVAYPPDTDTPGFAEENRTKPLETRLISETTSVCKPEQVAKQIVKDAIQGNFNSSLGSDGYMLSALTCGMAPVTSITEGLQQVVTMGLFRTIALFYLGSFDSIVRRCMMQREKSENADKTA
UniProt P33176: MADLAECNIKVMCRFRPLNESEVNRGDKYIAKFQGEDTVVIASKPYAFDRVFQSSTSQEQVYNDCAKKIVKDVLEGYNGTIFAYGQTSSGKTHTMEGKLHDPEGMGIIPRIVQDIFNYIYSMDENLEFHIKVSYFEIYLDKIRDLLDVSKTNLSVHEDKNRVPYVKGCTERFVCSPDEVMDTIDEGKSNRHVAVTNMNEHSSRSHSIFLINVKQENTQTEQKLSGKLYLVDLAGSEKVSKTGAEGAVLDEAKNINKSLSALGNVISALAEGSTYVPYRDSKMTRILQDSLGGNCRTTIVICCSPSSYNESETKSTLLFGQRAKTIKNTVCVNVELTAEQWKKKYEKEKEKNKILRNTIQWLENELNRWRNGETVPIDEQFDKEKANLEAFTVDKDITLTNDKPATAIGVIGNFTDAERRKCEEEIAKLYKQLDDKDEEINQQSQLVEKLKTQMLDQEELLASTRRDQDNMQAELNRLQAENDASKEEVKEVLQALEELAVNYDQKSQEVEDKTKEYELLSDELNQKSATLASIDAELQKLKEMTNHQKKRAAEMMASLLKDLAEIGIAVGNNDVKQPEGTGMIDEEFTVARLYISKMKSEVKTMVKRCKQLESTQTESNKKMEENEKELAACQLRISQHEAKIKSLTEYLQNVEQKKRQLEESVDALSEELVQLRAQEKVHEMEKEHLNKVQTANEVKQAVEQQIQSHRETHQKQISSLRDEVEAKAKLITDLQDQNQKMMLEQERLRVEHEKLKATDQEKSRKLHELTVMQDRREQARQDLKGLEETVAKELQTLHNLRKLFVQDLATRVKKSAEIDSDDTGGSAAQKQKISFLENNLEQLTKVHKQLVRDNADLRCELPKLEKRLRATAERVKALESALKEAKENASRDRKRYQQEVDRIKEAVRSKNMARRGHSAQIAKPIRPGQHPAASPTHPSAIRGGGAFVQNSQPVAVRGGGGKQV
UniProt Q14667: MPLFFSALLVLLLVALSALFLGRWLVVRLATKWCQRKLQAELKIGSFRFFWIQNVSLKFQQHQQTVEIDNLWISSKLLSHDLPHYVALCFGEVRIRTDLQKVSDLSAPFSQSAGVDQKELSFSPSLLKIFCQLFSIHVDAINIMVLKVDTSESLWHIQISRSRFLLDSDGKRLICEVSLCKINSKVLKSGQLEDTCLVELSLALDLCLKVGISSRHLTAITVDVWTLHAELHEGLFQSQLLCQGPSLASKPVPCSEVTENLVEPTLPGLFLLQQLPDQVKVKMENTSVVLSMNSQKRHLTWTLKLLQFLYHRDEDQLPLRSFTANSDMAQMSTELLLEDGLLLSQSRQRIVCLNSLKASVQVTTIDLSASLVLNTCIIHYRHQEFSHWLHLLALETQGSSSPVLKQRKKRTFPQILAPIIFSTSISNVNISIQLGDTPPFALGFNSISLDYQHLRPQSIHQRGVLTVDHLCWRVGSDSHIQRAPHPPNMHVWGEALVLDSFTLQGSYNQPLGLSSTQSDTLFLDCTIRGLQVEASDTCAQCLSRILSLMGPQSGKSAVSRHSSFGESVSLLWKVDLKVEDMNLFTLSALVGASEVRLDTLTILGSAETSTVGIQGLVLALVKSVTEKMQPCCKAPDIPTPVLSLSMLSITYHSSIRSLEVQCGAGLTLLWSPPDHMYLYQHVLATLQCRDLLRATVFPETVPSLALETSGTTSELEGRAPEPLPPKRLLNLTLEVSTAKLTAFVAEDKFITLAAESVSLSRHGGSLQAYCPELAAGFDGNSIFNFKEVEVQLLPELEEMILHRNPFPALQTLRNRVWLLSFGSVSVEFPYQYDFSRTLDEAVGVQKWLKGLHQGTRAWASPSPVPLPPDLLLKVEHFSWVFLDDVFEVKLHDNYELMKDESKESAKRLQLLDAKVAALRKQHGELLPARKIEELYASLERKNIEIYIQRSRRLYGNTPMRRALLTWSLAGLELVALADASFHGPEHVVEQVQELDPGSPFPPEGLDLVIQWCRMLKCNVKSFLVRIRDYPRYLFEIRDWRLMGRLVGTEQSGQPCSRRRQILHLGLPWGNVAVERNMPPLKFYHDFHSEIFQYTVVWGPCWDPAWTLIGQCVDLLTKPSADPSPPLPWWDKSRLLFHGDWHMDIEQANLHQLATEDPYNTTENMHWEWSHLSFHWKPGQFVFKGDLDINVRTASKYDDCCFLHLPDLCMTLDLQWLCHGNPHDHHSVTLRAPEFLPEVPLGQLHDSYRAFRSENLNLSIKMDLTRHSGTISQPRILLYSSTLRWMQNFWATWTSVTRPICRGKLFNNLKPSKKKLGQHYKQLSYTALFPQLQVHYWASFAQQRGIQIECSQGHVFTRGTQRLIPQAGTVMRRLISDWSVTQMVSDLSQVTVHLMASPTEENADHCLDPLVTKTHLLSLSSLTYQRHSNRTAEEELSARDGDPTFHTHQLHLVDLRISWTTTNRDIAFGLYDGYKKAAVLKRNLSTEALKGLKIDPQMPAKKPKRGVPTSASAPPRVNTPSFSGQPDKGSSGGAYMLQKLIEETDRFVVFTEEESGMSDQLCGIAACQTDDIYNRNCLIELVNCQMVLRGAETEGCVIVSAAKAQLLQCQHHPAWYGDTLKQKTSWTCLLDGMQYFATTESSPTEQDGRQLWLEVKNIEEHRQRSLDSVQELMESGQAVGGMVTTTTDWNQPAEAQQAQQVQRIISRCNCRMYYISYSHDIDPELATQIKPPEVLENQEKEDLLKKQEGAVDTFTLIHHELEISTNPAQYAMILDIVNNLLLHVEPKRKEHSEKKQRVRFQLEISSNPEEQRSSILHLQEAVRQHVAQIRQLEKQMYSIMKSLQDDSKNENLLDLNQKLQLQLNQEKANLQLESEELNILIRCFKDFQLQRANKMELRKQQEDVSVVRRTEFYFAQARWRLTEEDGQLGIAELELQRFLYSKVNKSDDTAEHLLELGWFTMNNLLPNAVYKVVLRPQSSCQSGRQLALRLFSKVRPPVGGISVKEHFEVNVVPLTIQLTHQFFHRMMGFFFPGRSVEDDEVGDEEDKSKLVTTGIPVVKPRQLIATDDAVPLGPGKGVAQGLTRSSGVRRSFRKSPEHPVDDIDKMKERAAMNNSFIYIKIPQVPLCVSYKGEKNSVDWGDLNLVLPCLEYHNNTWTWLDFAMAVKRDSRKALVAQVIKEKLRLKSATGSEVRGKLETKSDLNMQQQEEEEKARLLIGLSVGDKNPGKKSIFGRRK
UniProt Q92945: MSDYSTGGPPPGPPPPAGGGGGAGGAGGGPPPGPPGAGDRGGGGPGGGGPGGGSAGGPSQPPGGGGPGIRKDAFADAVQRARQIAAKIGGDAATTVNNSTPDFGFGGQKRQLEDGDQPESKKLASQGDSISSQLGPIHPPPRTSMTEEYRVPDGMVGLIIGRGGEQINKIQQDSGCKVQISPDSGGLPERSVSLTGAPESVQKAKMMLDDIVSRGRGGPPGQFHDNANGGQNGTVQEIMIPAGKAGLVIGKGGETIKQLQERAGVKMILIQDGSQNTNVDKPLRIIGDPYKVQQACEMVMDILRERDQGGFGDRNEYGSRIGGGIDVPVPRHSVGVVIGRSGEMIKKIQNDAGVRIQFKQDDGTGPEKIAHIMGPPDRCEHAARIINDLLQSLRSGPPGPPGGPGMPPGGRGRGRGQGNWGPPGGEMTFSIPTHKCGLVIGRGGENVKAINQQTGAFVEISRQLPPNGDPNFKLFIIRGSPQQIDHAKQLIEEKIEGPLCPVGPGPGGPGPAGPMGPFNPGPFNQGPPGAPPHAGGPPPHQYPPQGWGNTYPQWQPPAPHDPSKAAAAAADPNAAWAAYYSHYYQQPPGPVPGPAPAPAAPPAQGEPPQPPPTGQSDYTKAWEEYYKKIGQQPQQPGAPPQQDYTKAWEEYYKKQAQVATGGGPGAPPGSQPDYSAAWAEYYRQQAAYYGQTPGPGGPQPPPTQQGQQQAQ
UniProt Q7L273: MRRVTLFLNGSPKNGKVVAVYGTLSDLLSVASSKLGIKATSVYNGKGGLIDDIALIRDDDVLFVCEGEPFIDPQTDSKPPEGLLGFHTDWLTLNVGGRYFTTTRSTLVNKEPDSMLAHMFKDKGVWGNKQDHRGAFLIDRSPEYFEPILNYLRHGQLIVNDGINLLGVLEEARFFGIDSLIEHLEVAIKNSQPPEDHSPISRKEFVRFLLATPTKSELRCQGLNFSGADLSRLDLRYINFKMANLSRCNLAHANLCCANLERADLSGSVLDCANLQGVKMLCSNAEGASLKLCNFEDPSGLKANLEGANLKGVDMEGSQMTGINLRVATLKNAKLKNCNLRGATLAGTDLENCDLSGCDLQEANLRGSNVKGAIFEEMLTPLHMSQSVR

These targets were tested with CCN(CCCOc1ccc2c(Nc3cc(CC(=O)Nc4cccc(F)c4)[nH]n3)ncnc2c1)CCOP(=O)(O)O [barasertib] (assay: log2 fold change, soluble protein after heating vs DMSO (PISA); higher = thermal stabilisation; K562 cells, 10 uM, 30 min; active = over 0.2 and 3.5 SD of the protein, either way, in both replicates (recomputed)).
Outline: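 K562 cells at 2×10^6 cells/mL were exposed to 10 μM compound for 30 min, then aliquots were heated for 3 min across 48°C-58°C, pooled, and extracted in PBS containing 0.5% NP-40 at 4°C. The supernatant after 21,000xg for 90 min was taken as soluble protein and measured by TMTpro 16plex LC-MS/MS with channel sums equalised. Thermal stability is reported relative to control samples, with values from duplicates. Fold changes are given on a log2 scale.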

log2 fold change, inactive:
KAZN isoform 3 (UniProt Q674X7) -0.02
KNSTRN (UniProt Q9Y448) 0.009
KDM5C (UniProt P41229) 0.024
KLC1 isoform 6 (UniProt Q07866) 0.03
KBTBD2 (UniProt Q8IY47) 0.082
KLHL11 (UniProt Q9NVR0) -0.002
KDSR (UniProt Q06136) -0.031
KIF5B (UniProt P33176) -0.012
KIAA0100 (UniProt Q14667) 0.057
KHSRP (UniProt Q92945) -0.009
KCTD9 (UniProt Q7L273) 0.024
